Experimental findings from article PMC7819943, “Rice protein-binding microarrays: a tool to detect cis-acting elements near promoter regions in rice” are described below.

The other results are listed elsewhere or left out.

This assay addresses T1, OsSMF1 (Oryza sativa, UniProt Q6ZLB0 1-436).
T1 sequence: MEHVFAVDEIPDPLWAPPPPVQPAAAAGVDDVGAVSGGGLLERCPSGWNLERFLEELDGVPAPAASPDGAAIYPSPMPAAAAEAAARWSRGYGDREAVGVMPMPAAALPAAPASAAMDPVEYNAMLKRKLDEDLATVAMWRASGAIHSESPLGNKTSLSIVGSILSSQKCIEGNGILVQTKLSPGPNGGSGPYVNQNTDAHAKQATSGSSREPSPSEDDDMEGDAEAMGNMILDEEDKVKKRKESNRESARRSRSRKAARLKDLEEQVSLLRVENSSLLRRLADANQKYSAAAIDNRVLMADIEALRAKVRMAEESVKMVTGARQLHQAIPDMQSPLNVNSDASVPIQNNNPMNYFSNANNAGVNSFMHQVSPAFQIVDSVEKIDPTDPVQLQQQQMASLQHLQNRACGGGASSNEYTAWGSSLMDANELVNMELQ
Nature of the assay: protein-binding microarray (RPBM); PBS, 2% BSA, 51.3 ng/ul salmon testes DNA, 50 uM zinc acetate, 200 nM TF, 25 C, 1 h; high values mean tight binding. To be noted: protein: recombinant; tags: N-terminal polyhistidine and DsRed monomer fusion (pET32a); chain copies: 2; label: CyDye5-dUTP incorporated in the synthesized complementary strand; 3' TTTTT single-stranded linker to array surface; dsDNA, one strand shown. In outline:
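Transcription factors were each fused at the N-terminus to a polyhistidine tag plus DsRed and expressed in E. coli BL21-CodonPlus before Ni–NTA purification. Binding to a double-stranded custom Agilent array was carried out with 200 nM protein at 25 °C for 1 h in PBS, 2% BSA, salmon testes DNA and 50 µM zinc acetate. The binding signal is per-feature fluorescence intensity, in arbitrary units, on an Axon 4000B scanner.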
As to “ACTTTTATTTGGGACACGTGTACATAACTCTTTCGGTCCGCGGAGTCACCTAGTGCAG”, the binding signal is 22100 fluorescence intensity (a.u.).

In the case of “TCTTTGGTGATGGATAATAACCCGATATAAACAATATAGACGGAGTCACCTAGTGCAG”, the binding signal is 65000 fluorescence intensity (a.u.).

Turning to “GCACGCGCGGCGCCCGCTGCCCGGCGGCGCACACGTCGCGCGGAGTCACCTAGTGCAG”, the binding signal was 3510 fluorescence intensity (a.u.).

On to “CGCATGACCATGCTACACATCTCATCGACCATCACCTCTCCGGAGTCACCTAGTGCAG”, for which the binding signal was 3300 fluorescence intensity (a.u.).

As for “ACGATGCCCTAGCTCACAATCTTTCTATATAAATACCCACCGGAGTCACCTAGTGCAG”, the binding signal is 32800 fluorescence intensity (a.u.).

As to “GCCGGTGATCCGCCGACGAGTCAGCGCCGCCTCACGCCGGCGGAGTCACCTAGTGCAG”, the binding signal was 4600 fluorescence intensity (a.u.).

On to “AGCAGCAACCAGCAGGGAGAAAGCAATCAGCAGCACTCCACGGAGTCACCTAGTGCAG”, for which the binding signal is 3830 fluorescence intensity (a.u.).

As to “TCCGGAGAGTTGACGCAGCGTCAACCGGGTCCGTCGTTCTCGGAGTCACCTAGTGCAG”, the binding signal is 3800 fluorescence intensity (a.u.).

On to “TCCCGCAAAGTTTCCCACACTACTACAAAACATCAAATAGCGGAGTCACCTAGTGCAG”, for which the binding signal was 4470 fluorescence intensity (a.u.).

With “AGTAATGCCAGCTAACGACCATAAATGGCTCTCTGAAAGGCGGAGTCACCTAGTGCAG”, the binding signal is 3840 fluorescence intensity (a.u.).

As for “CCCCAAGATACCTGTGCGCGCGGCGCTGTGGCGTGACGCTCGGAGTCACCTAGTGCAG”, the binding signal is 3300 fluorescence intensity (a.u.).

As to “GTTGAGTTCGAAAACAATATAGATTGAGCATTCCAATATGCGGAGTCACCTAGTGCAG”, the binding signal was 36400 fluorescence intensity (a.u.).

Regarding “AATTTTATATACTAGAGGAGTTGAATCACCTAAGGTGAATCGGAGTCACCTAGTGCAG”, the binding signal was 3590 fluorescence intensity (a.u.).

In the case of “CTACTATACCTCCGTGCGTACCACATACTGTATGTAGACTCGGAGTCACCTAGTGCAG”, the binding signal was 4130 fluorescence intensity (a.u.).

As for “CTATCGCTATCCACTTCGTCCCCGCGTCGCGTGGCCCGAACGGAGTCACCTAGTGCAG”, the binding signal was 4980 fluorescence intensity (a.u.).

With “GTGGACATGTTTAGCTTTGATGAATCATAAGCGATTGTGGCGGAGTCACCTAGTGCAG”, the binding signal was 3910 fluorescence intensity (a.u.).

Turning to “GTCTCTGACTCAGTCTGGATGATCGAAGTCAGCTCGTCACCGGAGTCACCTAGTGCAG”, the binding signal was 6200 fluorescence intensity (a.u.).

“TCGCCGGGCTTCTCTACGAGTACCTCGTCATCCCGTCCACCGGAGTCACCTAGTGCAG”: the binding signal was 5700 fluorescence intensity (a.u.).

For “ACCACACGTTATAATACATGTGGTTTTCCACAACTTTAACCGGAGTCACCTAGTGCAG”, the binding signal is 24700 fluorescence intensity (a.u.).

On to “ATTTATCTACGTCACCGTAGTTTTACTCATGATGACGTAGCGGAGTCACCTAGTGCAG”, for which the binding signal was 7780 fluorescence intensity (a.u.).

As to “AACGTGCGAATCAACTGTCAATTAATTCTGACATGAACCTCGGAGTCACCTAGTGCAG”, the binding signal was 3220 fluorescence intensity (a.u.).

In the case of “GGCCAGGCCACCCCAACACGCCAGCCTCCCGGGCCGTTGACGGAGTCACCTAGTGCAG”, the binding signal was 3250 fluorescence intensity (a.u.).

For “AATTTGAAGCGACACGTCTCCTAGCTAACAAAACGCAGCACGGAGTCACCTAGTGCAG”, the binding signal is 4290 fluorescence intensity (a.u.).

As to “CTAATACCGACCAACACGTATTGGCCTGGTACTGACTGGTCGGAGTCACCTAGTGCAG”, the binding signal was 3760 fluorescence intensity (a.u.).

For “ACTGTGTGGCGTGTCAGTATTGTTTTGTCACGTCAGACGACGGAGTCACCTAGTGCAG”, the binding signal was 8470 fluorescence intensity (a.u.).

In the case of “AATTCCTCCCTTATATATAATCCTAGTCAGATTCTTGTATCGGAGTCACCTAGTGCAG”, the binding signal was 7700 fluorescence intensity (a.u.).

In the case of “CACCGGTCCTTGTCTTGCTTTGTCAGCGAGCTCGGGAAGCCGGAGTCACCTAGTGCAG”, the binding signal was 5340 fluorescence intensity (a.u.).

Regarding “TTTAAACTATGTAGAGACACTTGTTAGAATAATAATATGTCGGAGTCACCTAGTGCAG”, the binding signal was 20900 fluorescence intensity (a.u.).

In the case of “TCCCGTCTCGGCTCCTTGCGCCATCGTCGACAGGGGAGGGCGGAGTCACCTAGTGCAG”, the binding signal is 3540 fluorescence intensity (a.u.).

Consider “TGTATTCGGCCTCAGCCACGTACGTGGGCTTTATATTGGGCGGAGTCACCTAGTGCAG”, for which the binding signal was 5490 fluorescence intensity (a.u.).

As to “GCTCTCATGGGGCTTCTATCTGTATGGGTGATCTTAATGACGGAGTCACCTAGTGCAG”, the binding signal was 7940 fluorescence intensity (a.u.).

Take “GGCGGGTGGCTGCTCGCCGGACATGGTGGGTGGGTGCGTGCGGAGTCACCTAGTGCAG”: the binding signal is 3620 fluorescence intensity (a.u.).

As for “TAATTGGCTTGAGTTTGTTTATATGGCATTGAGTTCATCTCGGAGTCACCTAGTGCAG”, the binding signal is 24600 fluorescence intensity (a.u.).

As for “GATCAGAGGTCAACATTTGATCTGGGAGAAGTGGTCAGCGCGGAGTCACCTAGTGCAG”, the binding signal is 3410 fluorescence intensity (a.u.).

Consider “ACCGGCGAGCTCCTCCCCGCCCGCGACGTGGCGCGCGGAGCGGAGTCACCTAGTGCAG”, for which the binding signal is 5780 fluorescence intensity (a.u.).

“CAATCTTGCGTGAGCCGTGAGTCCAGCAGCCACGACACTACGGAGTCACCTAGTGCAG”: the binding signal was 4150 fluorescence intensity (a.u.).

Turning to “TCCTACGACCGTCTCGCCACGTCGGAGCCAAGGAAATTCGCGGAGTCACCTAGTGCAG”, the binding signal is 8640 fluorescence intensity (a.u.).

In the case of “TCGAACTCGCTCACCATGTTCGCCACGAAGTACTCGACATCGGAGTCACCTAGTGCAG”, the binding signal is 3220 fluorescence intensity (a.u.).

Take “TTGTTGCGATAAGTAGATCGACACGGCACAGAAACAGGTTCGGAGTCACCTAGTGCAG”: the binding signal was 4040 fluorescence intensity (a.u.).

For the sequence “ACTCTGCACGCACAGACAAACGCCACAGAGCGGCTGCAGCCGGAGTCACCTAGTGCAG”, the binding signal is 3480 fluorescence intensity (a.u.).

For “TTTTCTACGATATACGTAAGGCTAAATTGGATAATTCATCCGGAGTCACCTAGTGCAG”, the binding signal was 3240 fluorescence intensity (a.u.).

As for “CGCCAAACATCGTCCGACTCCTCCGAGGCCACGCCAGGGGCGGAGTCACCTAGTGCAG”, the binding signal was 24000 fluorescence intensity (a.u.).
